The list shows a part of the results. Most entries show no effect beyond the scatter of the controls.

Chains of the proteins cited; added tags and fusions are not shown. Lines headed by an entry give the natural chain unless they say otherwise; changes in a name come on top.
UniProt Q8K199: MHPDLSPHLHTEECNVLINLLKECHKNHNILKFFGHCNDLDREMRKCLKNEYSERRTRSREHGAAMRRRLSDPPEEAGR
UniProt Q8R1S0: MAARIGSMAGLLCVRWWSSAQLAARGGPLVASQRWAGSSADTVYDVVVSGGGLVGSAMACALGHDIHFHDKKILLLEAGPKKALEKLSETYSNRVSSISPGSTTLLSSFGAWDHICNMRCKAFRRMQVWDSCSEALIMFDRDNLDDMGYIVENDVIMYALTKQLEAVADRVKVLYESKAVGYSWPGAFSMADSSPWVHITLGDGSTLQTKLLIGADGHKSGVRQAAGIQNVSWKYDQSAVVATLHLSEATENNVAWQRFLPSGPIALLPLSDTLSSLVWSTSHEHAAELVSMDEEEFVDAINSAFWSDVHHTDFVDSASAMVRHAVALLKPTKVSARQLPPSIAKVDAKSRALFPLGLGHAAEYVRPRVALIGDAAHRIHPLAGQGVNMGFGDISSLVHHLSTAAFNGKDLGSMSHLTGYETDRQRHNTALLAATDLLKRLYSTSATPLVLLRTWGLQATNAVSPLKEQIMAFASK
UniProt Q8R0F6: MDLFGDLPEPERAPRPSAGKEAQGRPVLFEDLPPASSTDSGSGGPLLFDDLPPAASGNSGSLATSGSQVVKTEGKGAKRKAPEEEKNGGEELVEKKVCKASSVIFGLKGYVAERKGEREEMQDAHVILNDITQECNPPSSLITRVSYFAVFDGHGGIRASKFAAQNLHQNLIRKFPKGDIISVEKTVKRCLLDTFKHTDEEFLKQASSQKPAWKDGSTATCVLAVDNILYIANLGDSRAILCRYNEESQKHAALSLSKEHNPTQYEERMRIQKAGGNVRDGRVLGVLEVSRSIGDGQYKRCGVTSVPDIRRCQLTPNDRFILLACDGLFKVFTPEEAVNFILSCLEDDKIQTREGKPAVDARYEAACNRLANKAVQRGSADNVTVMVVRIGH
UniProt Q8K1X1: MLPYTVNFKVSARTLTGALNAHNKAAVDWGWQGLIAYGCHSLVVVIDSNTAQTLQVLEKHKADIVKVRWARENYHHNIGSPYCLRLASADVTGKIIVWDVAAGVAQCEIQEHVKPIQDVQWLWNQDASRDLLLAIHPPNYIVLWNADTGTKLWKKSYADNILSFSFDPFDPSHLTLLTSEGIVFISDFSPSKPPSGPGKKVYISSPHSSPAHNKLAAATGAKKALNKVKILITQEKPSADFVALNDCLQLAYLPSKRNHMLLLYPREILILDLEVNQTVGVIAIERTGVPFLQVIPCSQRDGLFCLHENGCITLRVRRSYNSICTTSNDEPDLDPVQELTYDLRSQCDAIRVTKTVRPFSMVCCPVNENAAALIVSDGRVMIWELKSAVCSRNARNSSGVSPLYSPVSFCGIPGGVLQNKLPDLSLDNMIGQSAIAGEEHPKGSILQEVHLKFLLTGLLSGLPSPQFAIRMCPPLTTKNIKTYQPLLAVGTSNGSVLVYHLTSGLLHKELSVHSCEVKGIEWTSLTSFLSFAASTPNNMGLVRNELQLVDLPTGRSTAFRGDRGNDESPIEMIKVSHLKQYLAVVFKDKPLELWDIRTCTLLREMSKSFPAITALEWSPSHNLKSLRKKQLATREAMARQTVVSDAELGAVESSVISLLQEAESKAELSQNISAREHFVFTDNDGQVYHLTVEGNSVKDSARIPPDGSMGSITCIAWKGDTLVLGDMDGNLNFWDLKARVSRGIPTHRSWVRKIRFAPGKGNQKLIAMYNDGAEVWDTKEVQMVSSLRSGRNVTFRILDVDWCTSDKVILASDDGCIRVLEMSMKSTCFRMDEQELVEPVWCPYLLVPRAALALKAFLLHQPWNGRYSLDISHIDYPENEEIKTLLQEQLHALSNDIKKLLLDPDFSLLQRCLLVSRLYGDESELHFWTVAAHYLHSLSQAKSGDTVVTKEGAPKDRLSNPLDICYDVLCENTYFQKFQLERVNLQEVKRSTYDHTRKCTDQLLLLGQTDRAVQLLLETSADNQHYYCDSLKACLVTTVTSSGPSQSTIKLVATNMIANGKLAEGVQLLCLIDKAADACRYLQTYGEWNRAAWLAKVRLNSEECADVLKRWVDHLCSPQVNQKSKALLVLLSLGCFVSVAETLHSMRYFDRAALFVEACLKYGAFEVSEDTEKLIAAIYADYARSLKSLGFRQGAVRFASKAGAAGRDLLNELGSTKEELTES
UniProt Q8R0C0: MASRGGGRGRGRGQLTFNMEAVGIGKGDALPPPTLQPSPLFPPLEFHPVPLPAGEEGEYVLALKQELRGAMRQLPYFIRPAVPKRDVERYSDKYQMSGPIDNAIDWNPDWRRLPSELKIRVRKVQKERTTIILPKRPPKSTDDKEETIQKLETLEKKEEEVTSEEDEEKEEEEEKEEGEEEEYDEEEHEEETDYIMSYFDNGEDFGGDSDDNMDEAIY
UniProt Q8K341: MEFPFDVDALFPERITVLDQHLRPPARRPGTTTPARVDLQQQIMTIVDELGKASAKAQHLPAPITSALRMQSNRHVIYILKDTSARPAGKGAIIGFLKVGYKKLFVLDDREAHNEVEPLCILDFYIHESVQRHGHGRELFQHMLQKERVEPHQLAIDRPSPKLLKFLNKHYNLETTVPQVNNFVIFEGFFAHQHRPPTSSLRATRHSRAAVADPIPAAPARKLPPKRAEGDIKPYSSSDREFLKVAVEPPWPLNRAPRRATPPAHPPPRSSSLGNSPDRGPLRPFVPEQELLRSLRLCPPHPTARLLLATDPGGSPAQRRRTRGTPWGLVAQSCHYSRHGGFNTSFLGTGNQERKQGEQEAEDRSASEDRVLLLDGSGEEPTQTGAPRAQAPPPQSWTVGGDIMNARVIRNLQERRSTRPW
UniProt Q8K1X4: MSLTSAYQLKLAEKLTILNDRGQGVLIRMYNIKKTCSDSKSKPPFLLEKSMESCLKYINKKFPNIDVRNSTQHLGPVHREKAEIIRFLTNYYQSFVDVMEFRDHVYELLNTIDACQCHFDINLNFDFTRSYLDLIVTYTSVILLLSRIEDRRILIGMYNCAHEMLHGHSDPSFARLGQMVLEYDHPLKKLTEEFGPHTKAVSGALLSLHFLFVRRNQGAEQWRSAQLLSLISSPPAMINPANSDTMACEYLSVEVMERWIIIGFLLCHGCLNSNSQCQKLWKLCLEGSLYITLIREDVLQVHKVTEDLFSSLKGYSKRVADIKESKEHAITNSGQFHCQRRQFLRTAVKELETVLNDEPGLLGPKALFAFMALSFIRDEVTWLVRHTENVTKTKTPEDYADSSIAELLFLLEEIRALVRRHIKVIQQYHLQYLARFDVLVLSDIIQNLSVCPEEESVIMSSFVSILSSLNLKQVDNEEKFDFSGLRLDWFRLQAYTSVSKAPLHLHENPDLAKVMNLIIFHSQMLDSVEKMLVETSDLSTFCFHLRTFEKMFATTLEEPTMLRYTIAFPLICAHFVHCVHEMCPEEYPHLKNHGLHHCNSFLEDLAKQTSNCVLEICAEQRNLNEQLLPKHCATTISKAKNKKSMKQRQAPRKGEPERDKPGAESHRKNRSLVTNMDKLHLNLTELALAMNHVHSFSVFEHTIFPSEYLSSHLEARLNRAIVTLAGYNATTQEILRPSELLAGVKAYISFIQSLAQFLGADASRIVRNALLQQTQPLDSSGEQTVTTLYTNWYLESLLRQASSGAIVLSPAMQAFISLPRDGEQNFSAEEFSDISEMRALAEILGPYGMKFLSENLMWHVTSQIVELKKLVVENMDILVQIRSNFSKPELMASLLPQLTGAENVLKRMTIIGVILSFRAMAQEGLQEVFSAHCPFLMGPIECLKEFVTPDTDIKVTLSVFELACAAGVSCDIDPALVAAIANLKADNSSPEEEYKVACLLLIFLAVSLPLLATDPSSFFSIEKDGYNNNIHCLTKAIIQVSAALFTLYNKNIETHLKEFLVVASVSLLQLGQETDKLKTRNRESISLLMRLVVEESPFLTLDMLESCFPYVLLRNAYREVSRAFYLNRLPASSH
UniProt Q8R0Z2: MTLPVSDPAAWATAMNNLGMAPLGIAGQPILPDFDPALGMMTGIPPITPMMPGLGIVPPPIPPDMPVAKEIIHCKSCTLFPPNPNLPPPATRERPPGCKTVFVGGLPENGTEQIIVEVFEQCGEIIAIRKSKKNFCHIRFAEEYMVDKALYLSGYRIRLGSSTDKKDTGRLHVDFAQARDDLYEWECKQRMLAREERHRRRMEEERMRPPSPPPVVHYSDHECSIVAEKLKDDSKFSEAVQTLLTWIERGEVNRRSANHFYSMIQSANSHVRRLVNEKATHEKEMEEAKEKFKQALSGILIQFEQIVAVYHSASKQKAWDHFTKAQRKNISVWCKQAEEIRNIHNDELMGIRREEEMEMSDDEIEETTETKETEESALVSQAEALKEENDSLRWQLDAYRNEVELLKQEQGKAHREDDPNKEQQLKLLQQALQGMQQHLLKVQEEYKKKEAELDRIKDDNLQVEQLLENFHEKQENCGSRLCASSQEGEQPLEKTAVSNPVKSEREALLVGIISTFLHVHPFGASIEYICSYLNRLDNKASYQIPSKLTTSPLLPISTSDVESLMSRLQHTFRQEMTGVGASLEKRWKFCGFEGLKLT
UniProt Q8R035, whole entry: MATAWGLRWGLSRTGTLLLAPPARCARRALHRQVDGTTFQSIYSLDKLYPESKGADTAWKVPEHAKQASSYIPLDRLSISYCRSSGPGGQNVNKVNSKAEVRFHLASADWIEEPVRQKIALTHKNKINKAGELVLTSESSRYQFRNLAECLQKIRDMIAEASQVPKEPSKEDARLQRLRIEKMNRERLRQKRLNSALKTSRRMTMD
UniProt Q8K1C0: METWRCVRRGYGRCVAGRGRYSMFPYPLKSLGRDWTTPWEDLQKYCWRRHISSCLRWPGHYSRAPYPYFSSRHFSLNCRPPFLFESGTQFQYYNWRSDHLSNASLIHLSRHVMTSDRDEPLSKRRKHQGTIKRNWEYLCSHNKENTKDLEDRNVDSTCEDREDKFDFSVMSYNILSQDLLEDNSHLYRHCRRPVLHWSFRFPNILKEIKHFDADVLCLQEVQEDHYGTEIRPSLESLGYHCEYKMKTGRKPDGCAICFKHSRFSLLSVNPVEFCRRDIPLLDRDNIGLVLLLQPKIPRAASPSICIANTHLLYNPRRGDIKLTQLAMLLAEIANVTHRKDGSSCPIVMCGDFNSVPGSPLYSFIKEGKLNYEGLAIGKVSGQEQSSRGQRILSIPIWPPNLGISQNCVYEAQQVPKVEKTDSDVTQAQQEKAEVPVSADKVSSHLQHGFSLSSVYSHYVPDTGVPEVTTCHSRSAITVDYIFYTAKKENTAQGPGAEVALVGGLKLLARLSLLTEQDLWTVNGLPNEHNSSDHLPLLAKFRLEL
UniProt Q8K183: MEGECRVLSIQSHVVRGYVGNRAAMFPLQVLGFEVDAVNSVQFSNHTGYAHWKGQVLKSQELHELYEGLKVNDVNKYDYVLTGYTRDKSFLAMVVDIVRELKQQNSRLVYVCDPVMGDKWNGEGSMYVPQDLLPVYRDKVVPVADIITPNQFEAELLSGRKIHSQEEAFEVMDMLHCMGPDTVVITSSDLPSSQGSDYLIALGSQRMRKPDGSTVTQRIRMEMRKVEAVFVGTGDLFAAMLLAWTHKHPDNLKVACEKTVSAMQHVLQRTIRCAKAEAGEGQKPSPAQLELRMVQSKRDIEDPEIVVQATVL

Compound in this experiment: CN[C@@H]1C[C@H]2O[C@@](C)([C@@H]1OC)n1c3ccccc3c3c4c(c5c6ccccc6n2c5c31)C(=O)NC4 [staurosporine]
Briefly: log2 fold change of tryptic peptide abundance, ligand vs vehicle (limited proteolysis) (log2 ratio); higher = more trypsin-susceptible (destabilized). As to conditions: ligand concentration: 20 uM; sample: mouse liver crude lysate; replicate design: treated separately.
Consider “UniProt Q8K199 (peptide sequence: RLSDPPEEAGR, peptide start residue: 69)”, for which the log2 fold change turned out to be 0.146.

As to “UniProt Q8R1S0 (peptide sequence: EQIMAFASK, peptide start residue: 468)”, the log2 fold change was found to be 0.214.

For “UniProt Q8R0F6 (peptide sequence: CQLTPNDR, peptide start residue: 312)”, the log2 fold change worked out at 0.279.

For “UniProt Q8K1X1 (peptide sequence: YLQTYGEWNR, peptide start residue: 1081)”, the log2 fold change was 0.306.

For “UniProt Q8R0C0 (peptide sequence: STDDKEETIQKLETLEK, peptide start residue: 140)”, the log2 fold change is -0.0878.

On to “UniProt Q8K341 (peptide sequence: HVIYILK, peptide start residue: 75)”, for which the log2 fold change came to 0.301.

With “UniProt Q8K1X4 (peptide sequence: AFYLNRLPASSH, peptide start residue: 1123)”, the log2 fold change was -0.183.

Take “UniProt Q8R0Z2 (peptide sequence: LLQQALQGMQQHLLK, peptide start residue: 427)”: the log2 fold change is -0.417.

For the target “UniProt Q8R035 (peptide sequence: QASSYIPLDR, peptide start residue: 67)”, the log2 fold change stood at 0.119.

In the case of “UniProt Q8K1C0 (peptide sequence: TDSDVTQAQQEK, peptide start residue: 420)”, the log2 fold change came out at 0.31.

For “UniProt Q8K183 (peptide sequence: SQELHELYEGLK, peptide start residue: 59)”, the log2 fold change is -0.342.
